Experimental data as given in US6833383B2, “Methods for treating patients suffering from drug dependencies which lead to plasma melatonin deficiencies” (Neurim Pharmaceuticals (1991) Ltd., priority 1995, dated 2004).

Assays:
melatonin receptors = test: 2-125I-melatonin binding to crude synaptosomal pellets of brains of rats treated for 21 days; type: in vivo, rat; settings: medulla-pons; 21 days treatment
Method: (§1) 20 male rats, maintained on a daily 14 hour light/10 hour darkness schedule, were divided into 4 groups, each consisting of 5 members:
(§2) Group 1 (the control group): rats were injected daily with 200 μl saline intraperitoneally for 21 days and were allowed to drink tap water.
(§3) They also were provided with regular tap water.
(§4) Group 3 (the melatonin group): rats were injected daily with 200 μl saline intraperitoneally. Their only available drinking water contained 0.4% by weight melatonin.
(§5) Each group was allowed food and water ad libitum. After 21 days the treatment was stopped. The animals were decapitated between 6:00 and 7:00 p.m. the next day, their brains were rapidly removed and crude synaptosomal pellets were prepared, and melatonin receptors were assessed using 2-^125I-melatonin, as described by Laudon, M., and N. Zisapel, FEBS Lett. 197:9 (1986). Benzodiazepine receptors were assessed by measuring the binding of radioactive benzodiazepine receptor probes ^3H-flunitrazepam (^3H-FNZ) and ^3H-RO 15-1788 as described by Amiri, Z. et al. Brain Res. 553:155 (1991). Binding parameters were calculated from the equilibrium binding data. […] Binding parameters of the various groups were compared by analysis of variance followed by Student-Newman-Keul's test for multiple comparison. Differences were considered significant if P<0.05.

Benzodiazepine receptors = test: 3H-flunitrazepam and 3H-RO 15-1788 binding to crude synaptosomal pellets of brains of rats treated for 21 days; type: in vivo, rat; settings: medulla-pons; 21 days treatment
Method: as §1, §2, §3, §4, §5

CN1C(=O)CN=C(c2ccccc2)c2cc(Cl)ccc21 [diazepam]
mean density of iodinated melatonin binding sites, lower than the control value (melatonin receptors): 35%
density or apparent affinity of RO-1788 binding compared with the control group (Benzodiazepine receptors): did not alter
